No constants are given. Whether binding was seen depends on the method and setting. Some binding calls cover weakened binding; strength is not graded here. Where a sequence is shown, tags or fusion partners need not be part of it.

Here are results for 1 substance from publication PMC5223379.

The experiment has as its target T1, Gal4-DNA-BD-Irr1Δ1-467 (C-terminal part of Irr1 starting from I468) (S. cerevisiae) (UniProt P40541).
T1 sequence: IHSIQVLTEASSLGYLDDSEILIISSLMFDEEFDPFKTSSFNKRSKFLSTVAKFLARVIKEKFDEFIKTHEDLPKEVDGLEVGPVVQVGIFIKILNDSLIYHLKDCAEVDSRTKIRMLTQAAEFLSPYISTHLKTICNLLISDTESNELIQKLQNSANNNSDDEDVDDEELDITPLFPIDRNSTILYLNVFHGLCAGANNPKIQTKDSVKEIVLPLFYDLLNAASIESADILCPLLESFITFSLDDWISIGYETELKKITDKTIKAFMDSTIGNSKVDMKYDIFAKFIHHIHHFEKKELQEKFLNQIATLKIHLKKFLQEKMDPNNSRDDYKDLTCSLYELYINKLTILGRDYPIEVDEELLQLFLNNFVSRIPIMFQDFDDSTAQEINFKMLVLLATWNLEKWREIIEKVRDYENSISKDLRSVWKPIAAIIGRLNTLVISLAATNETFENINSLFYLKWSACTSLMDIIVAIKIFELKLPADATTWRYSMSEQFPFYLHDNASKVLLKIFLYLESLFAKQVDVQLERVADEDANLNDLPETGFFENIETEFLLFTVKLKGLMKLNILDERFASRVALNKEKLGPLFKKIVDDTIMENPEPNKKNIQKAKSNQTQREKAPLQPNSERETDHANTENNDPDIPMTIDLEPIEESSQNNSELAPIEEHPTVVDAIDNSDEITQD
Briefly: two-hybrid; Gal4 system in strain PJ69-4α; bait Gal4-DNA-BD fusion from pGBKT7, preys AD-Gal4 fusions (genomic library screen and direct test); growth on SD lacking histidine with 10 mM 3-amino-1,2,4-triazole.

As to “Mrps5 fragment P56-G260 (two-hybrid prey) (from UniProt P33759 56-260) (domain or fragment)”, the binding result is “binds”.
